# Results reported in PubChem BioAssay AID493014 (National Center for Advancing Translational Sciences (NCATS), 2011).
# About 170 (0.05%) of roughly 340,000 compounds were called active. This list was built around the results that the source calls inconclusive (neither active nor inactive); the mix of calls is not that of the screen. Calls follow the shape of the dose curve; as a rule, active = well fitted inhibition curve with a large enough effect in the signal ratio, with a control signal flat (not every such curve was filed as active); inconclusive = small, poorly fitted or top-dose-only effect, or effect the other way, or a change in a side signal; inactive = flat fitted curve, though single readings scatter; the % refers to the signal ratio. Potencies beside an inconclusive call are fits to weak or partial responses and may not hold up.
# Test: qHTS Assay to Find Inhibitors of Chronic Active B-Cell Receptor Signaling;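 as to activity change, negative = inhibition: plate controls were basal doxycycline-induced cells for no effect and cells given 10 µM MG132 for full effect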
# Conditions: ABC-DLBCL IkBa-CBG/CBR reporter, luminescence ratio (green luciferase fused to IkBa over red control in TMD8 lymphoma cells), 4 h; activity change, negative = inhibition: at 46.1 µM (top of the series)
# Summary of the method: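 Doxycycline induced both beetle luciferases in TMD8 lymphoma cells; IKK-driven degradation limits the IkappaBalpha-fused green signal, while red luminescence normalises for cell number and nonspecific effects. Compounds tested up to 46 uM, 4 hrs.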
# Potency is read from the fitted curve at half-maximal effect.
SMILES,Potency,"activity change, negative = inhibition"
COc1ccc(CNC(=O)C[C@H]2C[C@H](C(=O)N3CCCCC3)[C@@]3(C)c4[nH]c5ccc(Cl)cc5c4CCN3C2=O)cc1OC,"inconclusive: 18.4 µM [falling, partial curve, poor fit]",
CCCS(=O)(=O)N1CCCC(C(=O)NCCc2ccc(Cl)cc2)C1 (configuration not stated),,inactive
Cc1ccc2c(c1)N(CC(=O)N1CCN(c3nc4ccccc4s3)CC1)C(=O)C(C)O2 (configuration not stated),,inconclusive: 13.1%
Cc1ccnc(NC(=O)c2ccc(Br)s2)c1,,inconclusive: -16.5%
COc1cccc(C(=O)NCCN2CCN(c3ccccc3)CC2)c1,,inconclusive: 0.528%
COC(=O)Nc1c(-c2ccccc2)nc2ccc(Cl)cn12,,inconclusive: -9.65%
Cc1cccc(N2CCN(C3=NC(=O)C(=C4CCCCC4)S3)CC2)c1,,inactive
Cc1csc(C(C#N)C(=O)c2cc3ccccc3o2)n1 (configuration not stated),,inconclusive: 258%
COc1ccc(N2CCN(C(=O)c3sc4nc(-c5ccc(F)cc5)cn4c3C)CC2)cc1,,inconclusive: -98.7%
COC(=O)c1cc(NC(=O)CN(c2cccc(OC)c2)S(=O)(=O)c2ccccc2)ccc1Cl,,inconclusive: 29.8%
CCc1ccc(CNC(=O)CCC(=O)N2Cc3cccc(OC)c3Oc3ncccc32)cc1,,inactive
CCOC(=O)N(CC)OC(=O)Nc1ccc(Cl)cc1,,inconclusive: 17.7%
N#Cc1sc(NCc2ccccc2)nc1Cl,,inactive
Cc1ccc([C@@H]2CC=C(C(=O)O)CN2S(=O)(=O)c2ccc(C)cc2)cc1,,inactive
Nc1ccc(OCc2ccco2)cc1,,inconclusive: -1.53%
CCOC(=O)C1CCN(C(=O)c2cc3c(ccc4ccccc43)o2)CC1,"inconclusive: 20 µM [falling, partial curve, poor fit]",
Clc1ccccc1CONc1ncnc2nonc12,,inactive
O=C(NCCc1c[nH]c2ccccc12)C(=O)Nc1ccccc1,"inconclusive: 28.2 µM [falling, partial curve]",
COc1ccccc1C(C)NC(=O)Cc1ccsc1 (configuration not stated),,inconclusive: 4.25%
O=C(O)CCc1ccc(-c2cccs2)o1,,inactive
COc1ccc(C)cc1NC(=O)CCCN1C(=O)NC(C)(C)C1=O,,inconclusive: 0.146%

SMILES,Potency,"activity change, negative = inhibition"
COCCCNC(=O)CSC1=Nc2ccccc2C2=NC(CCC(=O)NCc3ccccc3OC)C(=O)N12 (configuration not stated),,inactive
N#Cc1ccc(-c2ccc(OCC(O)CN3CCOCC3)cc2)cc1 (configuration not stated),,inconclusive: 0.743%
CCc1cc(=O)oc2c(CN3CCCC3)c(O)c(Cl)cc12,,inconclusive: 9.21%
Cc1ccc(SCCN2CCC(C)CCC2=O)cc1 (configuration not stated),,inactive
N#C/C(=C\c1cn(Cc2cccc(F)c2)c2ccccc12)C(=O)NCc1ccco1,,inconclusive: 11.4%
CN(C)c1cc2c(cc1NC(=O)c1ccccc1Cl)n(C)c(=O)n2C,,inconclusive: -12.2%
CCOC(=O)C(=O)N1CCN(CC)CC1,,inactive
Cc1nc2nc(-c3ccccc3)[nH]n2c(=O)c1Cc1ccccc1,"inconclusive: 2.91 µM [falling, full curve]",
CN(C)/C=C1/C=C(C=O)OC1=O,,inactive
O=C(c1ccccc1[N+](=O)[O-])N1N=C(c2ccccc2)CC1(O)C(F)(F)F (configuration not stated),"inconclusive: 35.5 µM [falling, partial curve, poor fit]",
Fc1cccc(NC(=S)NNc2c3ccccc3nc3ccccc23)c1,,inconclusive: 2.35%
O=C(/C=C/Nc1ccc(Br)cc1F)c1ccccc1,"inconclusive: 5.8 µM [falling, full curve]",
Cc1cc(Oc2ccc(C#N)cc2)nc(NCc2ccccc2)n1,,inconclusive: 1.58%
COc1ccc(N2CCN(C(=O)COC(=O)c3ccccc3OCc3ccc(F)cc3)CC2)cc1,,inconclusive: -9.85%
CCCc1ccc(C(C)NC(=S)NC2CCCCC2)cc1 (configuration not stated),,inactive
O=C(Nc1ccc(F)cc1F)N1CCC(c2nc3ccccc3o2)CC1,,inconclusive: 9.54%
COc1cc(C(=O)NCC(c2cccs2)N2CCOCC2)cc(Br)c1OCc1ccccc1 (configuration not stated),,inconclusive: 8.89%
CCN(CC)c1ccc2oc(=O)c(C)nc2c1,"inconclusive: 3.66 µM [falling, single point]",
O=C1NC(=Nc2cccnc2)S/C1=C\c1cccc(F)c1,"inconclusive: 11.2 µM [falling, partial curve]",
Cc1ccc(NC(=O)CSc2nnc(CN3CCOCC3)n2-c2ccccc2)cc1,"inconclusive: 14.6 µM [rising, partial curve]",
COc1ccc(-c2nc3ccccc3nc2-c2ccc(OC)c(OC)c2)cc1OC,,inconclusive: -0.0821%

# By substructure: the entries above containing an NH in an aromatic ring
SMILES,Potency,"activity change, negative = inhibition"
COc1ccc(CNC(=O)C[C@H]2C[C@H](C(=O)N3CCCCC3)[C@@]3(C)c4[nH]c5ccc(Cl)cc5c4CCN3C2=O)cc1OC,"inconclusive: 18.4 µM [falling, partial curve, poor fit]",
O=C(NCCc1c[nH]c2ccccc12)C(=O)Nc1ccccc1,"inconclusive: 28.2 µM [falling, partial curve]",
Cc1nc2nc(-c3ccccc3)[nH]n2c(=O)c1Cc1ccccc1,"inconclusive: 2.91 µM [falling, full curve]",

# Later entries

SMILES,Potency,"activity change, negative = inhibition"
COCCNC(=O)c1ccccc1NS(=O)(=O)c1ccc(Br)s1,,inconclusive: 4.39%
C=C(C)COc1ccc(-c2ncncc2-c2ccc(Cl)cc2)c(O)c1,,inactive
COC(=O)c1c(C)[nH]c(C(=O)OCC(=O)c2c(N)n(CC(C)C)c(=O)n(C)c2=O)c1C,,inactive
CCCn1nc(C(=O)N2CCN(c3ccccn3)CC2)c2ccccc2c1=O,,inconclusive: -0.622%
Nc1nc2ccc(Oc3ccccc3)cc2s1,,inconclusive: -17%
O=C(NNC(=O)c1ccc2c(c1)OCO2)NC12CC3CC(CC(C3)C1)C2,"inconclusive: 25.9 µM [falling, single point]",
Cc1ccnc(NC(=O)C2CCC(CNc3c(N4CCCC4)c(=O)c3=O)CC2)c1 (configuration not stated),,inconclusive: 23.4%
COC(=O)c1ccc(OCC(O)CN2CCN(C(=O)c3ccco3)CC2)c(OC)c1 (configuration not stated),,inactive
COc1ccc(/C=C2\SC(=S)N(CC(=O)N(C)C3CCS(=O)(=O)C3)C2=O)cc1 (configuration not stated),,inconclusive: -27%
Cc1ccc(NC(=O)CNC(=O)c2cccs2)cc1S(=O)(=O)Nc1ccc(Cl)cc1,,inconclusive: -5.61%
COc1ccccc1C(=O)CSc1cccc[n+]1[O-],"inconclusive: 35.5 µM [falling, single point]",
CC(C)(C)OC(=O)C1C(=O)CC(C)(O)C(C(=O)OC(C)(C)C)C1c1cccnc1 (configuration not stated),,inconclusive: -3.65%
CCOC(=O)c1oc2cccc(OCC(O)CNC(C)C)c2c1C (configuration not stated),"inconclusive: 18.4 µM [falling, single point]",
COCc1c(C(=O)Nc2cccc(S(=O)(=O)N3CCCCC3)c2)oc2ccccc12,,inactive
CC(=O)c1cc(C)ccc1OC(=O)CCN1C(=O)C2C3c4ccccc4C(c4ccccc43)C2C1=O (configuration not stated),,inactive
Cc1ccc(Cn2ccc(NC(=O)c3cc(-c4ccccc4)on3)n2)cc1,"inconclusive: 2.06 µM [falling, partial curve, poor fit]",
COc1ccc(-c2coc3c(CN4CCOCC4)c(O)ccc3c2=O)cc1,,inconclusive: -0.311%
Cc1nn2c(N3CCOCC3)cc(C(C)(C)C)nc2c1-c1ccccc1,,inactive
N#Cc1c(SCc2ccc(Cl)cc2)sc(C(=O)c2ccccc2)c1N,,inconclusive: 7.13%
CCN1C(N(C)CCc2c[nH]c3ccccc23)=N[C@@H](c2cccc(C(F)(F)F)c2)C(C(=O)OC)=C1C,,inconclusive: -6.03%
N#Cc1ccc2c(c1)C[C@]1(CCCCN3C(=O)c4ccccc4C3=O)OC3=C(C(=O)OC4(CCCCC4)C3)C2O1,,inactive: 19.7% [at 9.22 µM]

SMILES,Potency,"activity change, negative = inhibition"
O=C(COc1ccccc1)Nc1ncccn1,,inactive
Cn1nc(C(=O)Nc2nc3ccccc3[nH]2)c2ccccc2c1=O,"inconclusive: 16.4 µM [falling, partial curve]",
O=C(Nc1cccc(S(=O)(=O)N2CCOCC2)c1)c1ccc(Cl)nc1,,inconclusive: 2.46%
CCOC(=O)C(Cc1ccccc1)C(=O)Nc1ccc(NC(=O)C(Cc2ccccc2)C(=O)OCC)cc1 (configuration not stated),,inactive
COc1cccc(C(=O)COc2cccc(NC(=O)c3ccco3)c2)c1,"inconclusive: 5.01 µM [falling, full curve, poor fit]",
O=C(N/N=C/c1ccc(-c2cccc([N+](=O)[O-])c2)o1)c1ccc([N+](=O)[O-])cc1,,inconclusive: 8.01%
CC(C)/C=N/NC(=O)c1cccc(N2CCCC2=O)c1,"inconclusive: 32.6 µM [falling, single point]",
CC(C)CNC(=S)N(CCN(C)C)Cc1cc2cc3c(cc2[nH]c1=O)OCCO3,,inconclusive: -18.5%
O=C1[C@@H]2Cc3c([nH]c4ccccc34)CN2C(=O)CN1CCO,,inconclusive: 5.88%
Cc1nnc(NCc2cccc(Cl)c2)c2ccccc12,,inconclusive: -12.5%
CC(=O)N1CCN(c2ccc(NC(=O)c3ccc(Br)o3)cc2Cl)CC1,,inactive
CC(=O)O[C@@H]1[C@H]2[C@@H](C[C@@H](C)[C@@H]3C=CC(=O)[C@@]13C)OC(=O)[C@@H]2C,"inconclusive: 22.4 µM [falling, single point]",
Cc1ccc(CNC(=O)c2ccc(OCC(C)C)cc2)n1C,,inactive
CN(C)CCCN(C(=O)COc1ccccc1)c1nc2cc3c(cc2s1)OCCO3,"inconclusive: 22.4 µM [falling, single point]",
CCN(CC(=O)NCc1cccs1)C(=O)c1ccc(S(=O)(=O)Nc2ccccc2C)cc1,"inconclusive: 0.326 µM [rising, full curve, poor fit]",
O=c1[nH]n(CC2COC3(CCCCC3)O2)c(=O)c2ccccc12 (configuration not stated),,inconclusive: -2%
COc1ccc(-c2nc3c4ccccc4ccn3c2C=O)cc1,,inconclusive: 6.68%
O=c1c2ccccc2nc(-c2ccco2)n1/N=C/c1ccco1,,inconclusive: 0.653%
Cc1ccc(NC(=O)c2ccc(-c3nn(C)c(=O)c4ccccc34)cc2)cc1,"inconclusive: 23.1 µM [falling, partial curve, poor fit]",
